From paper PMC8837792
No constants are given. Whether binding was seen depends on the method and setting. In cells and extracts the contact can be indirect. Some binding calls cover weakened binding; strength is not graded here.

By UniProt entry, the sequences of proteins in these tests, tags left out.
UniProt Q9Y297: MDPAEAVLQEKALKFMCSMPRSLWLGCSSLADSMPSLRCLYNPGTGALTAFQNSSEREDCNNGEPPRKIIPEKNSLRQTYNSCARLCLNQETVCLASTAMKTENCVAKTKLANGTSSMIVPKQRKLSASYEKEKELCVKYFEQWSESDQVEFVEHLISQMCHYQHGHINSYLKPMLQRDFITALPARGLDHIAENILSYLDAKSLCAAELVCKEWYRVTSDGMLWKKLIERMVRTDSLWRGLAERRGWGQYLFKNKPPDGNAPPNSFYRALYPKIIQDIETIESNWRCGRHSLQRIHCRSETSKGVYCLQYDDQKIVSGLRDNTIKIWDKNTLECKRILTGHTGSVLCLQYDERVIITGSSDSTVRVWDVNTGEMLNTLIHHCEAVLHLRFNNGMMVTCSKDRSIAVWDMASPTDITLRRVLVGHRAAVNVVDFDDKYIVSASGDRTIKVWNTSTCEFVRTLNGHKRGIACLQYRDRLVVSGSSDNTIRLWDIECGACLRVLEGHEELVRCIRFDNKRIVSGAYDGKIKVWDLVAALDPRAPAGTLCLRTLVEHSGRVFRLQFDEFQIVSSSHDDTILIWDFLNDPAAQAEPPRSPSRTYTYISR

Key:
[1] = biological target: beta-transducin repeat containing E3 ubiquitin-protein ligase (βTrCP) (human (endogenous in A549 and H1299)) (UniProt Q9Y297); test: co-IP; endogenous proteins in lysates of control, ISG15 overexpression or ISG15 knockout A549 and H1299 cells; IP with anti-YAP or anti-βTrCP antibodies cross-linked to protein A/G magnetic beads, 4 °C overnight; bait level adjusted to the same protein content; immunoblot
[2] = biological target: YAP (overexpressed in A549 cells that formed xenograft tumors) (UniProt P46937); test: co-IP; lysates of xenograft tumors formed by WT or ISG15-/- A549 cells with YAP overexpression; YAP level adjusted to the same protein content; immunoblot
[3] = biological target: Yes-associated protein (YAP) (human (endogenous in A549 and H1299)) (UniProt P46937); test: proximity ligation; Duolink In Situ Red Starter Kit; WT or ISG15-/- A549 cells fixed with 4% PFA; anti-YAP and anti-βTrCP primary antibodies; confocal microscope
[4] = biological target: YAP^K497R-HA (UniProt P46937); test: co-IP; YAP-/- A549 cells reconstituted with YAP^WT-HA or YAP^K497R-HA, with or without ISG15; IP with anti-YAP antibodies; YAP level adjusted to the same protein content; immunoblot
[5] = biological target: YAP^WT-HA (UniProt P46937); test: as above
[6] = biological target: Yes-associated protein (YAP) (human (endogenous in A549 and H1299)) (UniProt P46937); test: co-IP; endogenous proteins in lysates of control, ISG15 overexpression or ISG15 knockout A549 and H1299 cells; IP with anti-YAP or anti-βTrCP antibodies cross-linked to protein A/G magnetic beads, 4 °C overnight; bait level adjusted to the same protein content; immunoblot

Measured: binding

Yes-associated protein (YAP) (from UniProt P46937 1-504)
binds: [1]

beta-transducin repeat containing E3 ubiquitin-protein ligase (βTrCP) (from UniProt Q9Y297 1-605)
not listed: [1]
binds: all other assays above
